No constants are given. Whether binding was seen depends on the method and setting. Some results given as binding are weak or reduced against the parent protein; the word gives no strength.
How the values were obtained:
[1] = molecular target: Rheb (Ras homolog enriched in brain) (UniProt Q15382); assay: condition: only with Deltazinone 1 (5 μM highest concentration) or Deltasonamide 1 (20 μM highest concentration); two-hybrid; quantitative lacZ read-out (ONPG, DO-2 medium) in the presence of the PDEδ inhibitors Deltazinone 1 (5 μM highest concentration) or Deltasonamide 1 (20 μM highest concentration), 7 h or 24 h
[2] = molecular target: Rheb (Ras homolog enriched in brain) (UniProt Q15382); assay: two-hybrid; LexA DNA-binding domain baits (pB27) and Gal4 Activation Domain prey (pP7) in diploid yeast; growth on DO-3 medium (lacking tryptophan, leucine, histidine) and blue colonies on DO-2 medium with X-gal
[3] = molecular target: Arl2 (Arf-like GTPase) (UniProt P36404); assay: two-hybrid; quantitative lacZ read-out: diploid yeast with bait and prey grown on DO-2 with the β-galactosidase substrate ONPG, colorimetric; Deltazinone 1 or Deltasonamide 1 titrated, 7 h or 24 h; the interaction as measured without or below the effective compound concentration
[4] = molecular target: Arl3 (Arf-like GTPase) (UniProt P36405); assay: as above
[5] = molecular target: Rheb (Ras homolog enriched in brain) (UniProt Q15382); assay: as above
[6] = molecular target: T1, INPP5E (UniProt Q9NRR6); assay: as above
T1 sequence: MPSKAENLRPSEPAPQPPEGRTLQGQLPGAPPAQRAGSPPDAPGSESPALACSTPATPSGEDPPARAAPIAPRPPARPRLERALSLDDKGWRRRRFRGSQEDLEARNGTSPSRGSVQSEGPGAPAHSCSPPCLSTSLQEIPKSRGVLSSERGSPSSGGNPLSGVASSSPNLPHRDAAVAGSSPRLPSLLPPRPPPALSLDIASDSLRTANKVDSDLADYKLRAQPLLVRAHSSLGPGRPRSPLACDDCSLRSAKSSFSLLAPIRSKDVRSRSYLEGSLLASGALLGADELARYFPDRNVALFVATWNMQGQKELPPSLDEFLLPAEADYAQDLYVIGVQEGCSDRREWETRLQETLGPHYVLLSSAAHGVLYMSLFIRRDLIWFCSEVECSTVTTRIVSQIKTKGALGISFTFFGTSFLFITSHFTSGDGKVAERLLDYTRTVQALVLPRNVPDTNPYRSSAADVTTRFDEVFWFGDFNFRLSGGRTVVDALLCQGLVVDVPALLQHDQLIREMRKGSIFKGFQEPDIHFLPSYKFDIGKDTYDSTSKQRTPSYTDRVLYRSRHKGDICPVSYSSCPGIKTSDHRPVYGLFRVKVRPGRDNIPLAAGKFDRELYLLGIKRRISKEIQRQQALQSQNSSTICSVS

The chains behind the UniProt entries cited, without tags or fusion partners.
UniProt P36404: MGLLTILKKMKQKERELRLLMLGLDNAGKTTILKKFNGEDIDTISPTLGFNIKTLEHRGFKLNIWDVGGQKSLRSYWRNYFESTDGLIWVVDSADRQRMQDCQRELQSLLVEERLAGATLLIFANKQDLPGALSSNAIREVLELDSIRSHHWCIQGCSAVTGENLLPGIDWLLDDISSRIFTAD
UniProt P36405: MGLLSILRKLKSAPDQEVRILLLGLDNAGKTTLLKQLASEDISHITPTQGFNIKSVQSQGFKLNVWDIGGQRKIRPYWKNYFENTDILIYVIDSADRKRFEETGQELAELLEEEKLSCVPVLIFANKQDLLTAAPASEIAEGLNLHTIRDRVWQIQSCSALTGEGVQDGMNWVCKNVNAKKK

[7] = molecular target: T2, GRK1 (UniProt Q15835); assay: as above
T2 sequence: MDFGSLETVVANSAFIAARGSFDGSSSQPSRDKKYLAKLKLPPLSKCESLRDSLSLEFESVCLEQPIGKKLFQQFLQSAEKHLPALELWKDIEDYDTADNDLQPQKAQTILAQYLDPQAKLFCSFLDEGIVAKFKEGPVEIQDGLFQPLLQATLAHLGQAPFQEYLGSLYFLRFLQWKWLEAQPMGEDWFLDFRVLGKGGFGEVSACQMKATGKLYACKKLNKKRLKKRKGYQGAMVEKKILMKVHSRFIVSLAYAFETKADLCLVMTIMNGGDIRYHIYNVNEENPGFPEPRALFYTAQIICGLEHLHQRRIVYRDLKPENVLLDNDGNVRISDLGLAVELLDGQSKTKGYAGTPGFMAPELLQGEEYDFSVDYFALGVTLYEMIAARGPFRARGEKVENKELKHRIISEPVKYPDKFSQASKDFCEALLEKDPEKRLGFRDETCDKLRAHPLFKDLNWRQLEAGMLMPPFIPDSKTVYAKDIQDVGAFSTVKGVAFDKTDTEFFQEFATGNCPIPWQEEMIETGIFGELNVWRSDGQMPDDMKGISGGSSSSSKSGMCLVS

binding [1]: no binding | binding [2]: binds | binding [3]: binds | binding [4]: binds | binding [5]: binds | binding [6]: binds | binding [7]: binds
Substance: PDEδ (Phosphodiesterase 6δ) (from UniProt O43924 1-150)
